Values are relative to the signal before dosing, not to a vehicle control; the signal also falls without drug.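 Fibroblast labels name human fibroblasts: mostly primary ones from tissues such as uterus (C12385, HUF), lung (H6013), bone (Hs27A), adrenal (HADF) and skin (WS1), plus mammary HMF and breast cancer-associated Hs343T. The cancer cells are basal-like or mesenchymal-like triple-negative breast cancer lines. The paper calls a changed response a hit when it shifts by more than 3x the replicate standard deviation. The tissue of the other fibroblasts is not given here.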
System: HCC1143
Experiment: relative JC-1 red fluorescence (viability) vs pre-drug, coculture with fibroblast (fraction); higher = more viable cancer cells
Conditions: 1 µM
Description: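 JC-1 labelled TNBC cells cocultured 1:1 (1,500 cells each) with CellTrace Violet stained primary or stromal fibroblasts in 384-well plates in FluoroBrite medium, treated with one of 42 anticancer drugs at 0.1, 1, 10 or 100 uM. JC-1 red fluorescence (mitochondrial integrity in cancer cells only) was read by plate reader every 8 h for 72 h. Values are normalised to each well's pre-drug value. The stock of one drug was tenfold lower, so its dose labels may be too high.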

C[C@]12CC[C@@H]3c4ccc(O)cc4C[C@@H](CCCCCCCCC[S+]([O-])CCCC(F)(F)C(F)(F)F)[C@H]3[C@@H]1CC[C@@H]2O (some centres undefined) [Fulvestrant]
relative JC-1 red fluorescence
Conditions	8 h	16 h	24 h	32 h	40 h	48 h	56 h	64 h	72 h
coculture fibroblast: C12385	0.848	0.832	0.792	0.737	0.673	0.639	0.605	0.569	0.546
coculture fibroblast: H6013	0.73	0.667	0.629	0.621	0.548	0.535	0.498	0.474	0.449
coculture fibroblast: H6019	0.7885	0.744	0.718	0.673	0.648	0.634	0.584	0.5415	0.509
coculture fibroblast: H6076	0.80557	0.78	0.749	0.7101	0.666	0.652	0.627	0.613	0.626
coculture fibroblast: H6231	0.7946	0.7731	0.699	0.591	0.609	0.577	0.533	0.498	0.477
coculture fibroblast: HADF	0.738	0.695	0.669	0.674	0.586	0.56	0.531	0.507	0.499
coculture fibroblast: HCFa	0.777	0.711	0.665	0.641	0.558	0.532	0.493	0.462	0.444
coculture fibroblast: HCPF	0.78223	0.768	0.749	0.70691	0.701	0.678	0.653	0.6267	0.6256
coculture fibroblast: HHSteC	0.867	0.792	0.748	0.7134	0.62	0.586	0.537	0.498	0.462
coculture fibroblast: HMF	0.808	0.8244	0.78994	0.713	0.699	0.67	0.639	0.613	0.601
coculture fibroblast: HPFa	0.8938	0.838	0.798	0.696	0.64	0.605	0.545	0.502	0.459
coculture fibroblast: HUF	0.8512	0.79	0.755	0.689	0.649	0.622	0.574	0.548	0.514
coculture fibroblast: Hs5	0.833	0.845	0.802	0.776	0.701	0.675	0.646	0.624	0.606
coculture fibroblast: Hs27A	0.7459	0.704	0.675	0.715	0.575	0.555	0.512	0.476	0.464
coculture fibroblast: Hs343T	0.791	0.812	0.751	0.661	0.629	0.598	0.554	0.534	0.514
coculture fibroblast: WS1	0.81572	0.7667	0.744	0.69	0.651	0.63	0.597	0.577	0.558

Source: the supplement of paper PMC6078165
